The values below come from publication PMC7862700.

Protein sequences, listed by entry. Tags and fused reporters are not part of them. Lines headed by an entry give the natural chain unless they say otherwise; changes in a name come on top.
UniProt O43186: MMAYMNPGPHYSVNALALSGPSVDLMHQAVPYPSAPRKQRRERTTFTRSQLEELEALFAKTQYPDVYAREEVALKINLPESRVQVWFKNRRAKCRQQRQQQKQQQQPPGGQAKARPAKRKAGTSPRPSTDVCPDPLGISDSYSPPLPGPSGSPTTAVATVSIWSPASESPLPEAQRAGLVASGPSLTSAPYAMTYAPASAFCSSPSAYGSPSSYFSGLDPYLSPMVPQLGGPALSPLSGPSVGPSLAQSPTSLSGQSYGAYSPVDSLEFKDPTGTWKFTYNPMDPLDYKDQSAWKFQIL

Holding throughout (assay): DAPPL (digital affinity profiling via proximity ligation, sequencing)
Common to all, as to settings: 10 mM Tris-HCl pH 7.5, 50 mM NaCl, 1 mM DTT, 4% glycerol, room temperature, 30 min; GST-TFs on glutathione beads, 16-mer random dsDNA library, 0.1% …; high values mean tight binding; double strand, one strand shown; scale: fold enrichment (6-mer frequency, TF over GST control)

In one assay the target is CRX (UniProt O43186).
A further assay addresses T1, ELF5 (UniProt Q9UKW6-2).
T1 sequence: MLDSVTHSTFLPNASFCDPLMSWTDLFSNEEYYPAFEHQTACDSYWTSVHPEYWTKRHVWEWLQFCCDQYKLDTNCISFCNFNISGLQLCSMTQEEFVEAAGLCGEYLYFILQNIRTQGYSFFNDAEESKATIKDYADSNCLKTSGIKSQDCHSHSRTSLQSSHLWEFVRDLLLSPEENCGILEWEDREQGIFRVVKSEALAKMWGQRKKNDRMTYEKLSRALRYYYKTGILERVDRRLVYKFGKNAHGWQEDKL

A further assay concerns the target T2, FEV (UniProt Q99581).
T2 sequence: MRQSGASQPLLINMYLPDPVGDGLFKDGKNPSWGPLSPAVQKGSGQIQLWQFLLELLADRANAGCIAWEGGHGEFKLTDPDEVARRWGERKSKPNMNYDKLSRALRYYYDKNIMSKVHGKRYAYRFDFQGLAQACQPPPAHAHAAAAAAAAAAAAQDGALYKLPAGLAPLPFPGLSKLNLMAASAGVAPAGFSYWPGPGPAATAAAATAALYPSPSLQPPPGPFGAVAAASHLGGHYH

This is a selection; strong and weak results do not stand in their true shares. At the low end of the ranking the order means little.

For the sequence ACGTTT, the results for the binding signal with CRX and with ELF5 were 1 and 1.23, respectively.
For CAACGC, in that order: 0.834 and 0.996.
For GGTACA, in that order: 0.722 and 1.
With CCGGCG, the binding signal with CRX is 0.564; in the assay with ELF5 it was 0.941.
For TTCTAC the same measures were 1.69 and 1.54.
For ACGTCT the same measures were 1.09 and 1.09.
For ATTAGG the same measures were 2.38 and 1.12.
For the sequence CCTGCG, the binding signal was found to be 1.05 with CRX and 1.3 in the assay with ELF5.
For CATGTA, in that order: 0.903 and 0.993.
For GCCACA, in that order: 0.727 and 0.9.
For CATTGC, the binding signal in the assay with CRX turned out to be 0.818; in the assay with ELF5 it was 0.98.
For GCACGC the same measures were 0.783 and 0.994.
For GCACAC, in that order: 0.692 and 0.928.
For CCACCA the same measures were 0.789 and 0.983.
On to CACATC, for which the results for the binding signal in the assay with CRX and with ELF5 were 0.868 and 1.42, respectively.
In the case of ACTGTT, the binding signal with CRX amounted to 0.926; with ELF5, 1.22.
In the case of GCAATG, the figures for the binding signal in the assay with CRX and in the assay with ELF5 were 0.779 and 0.978, respectively.
In the case of TTGAAA, the binding signal came to 1.24 with CRX and 1.03 in the assay with ELF5.
For TGGCTG, in that order: 0.899 and 1.01.
For CGCGGC the same measures were 0.872 and 0.948.
For TCGATA the same measures were 1.24 and 0.976.
In the case of AGTGTA, the binding signal in the assay with CRX is 0.808; in the assay with ELF5, 0.989.
For TGCATG, in that order: 0.866 and 1.01.
For CAGCAT, in that order: 0.897 and 0.958.
On to ATGTAG, for which the binding signal with CRX worked out at 0.907; with ELF5, 1.04.
For AAGTGT the same measures were 0.994 and 1.43.
For GCTAAC the same measures were 0.945 and 0.925.
For GCCCGA the same measures were 0.884 and 0.939.
Consider CCCTGC, for which the binding signal in the assay with CRX was 0.994; with ELF5, 1.2.
With ATTAGT, the binding signal stood at 2.44 in the assay with CRX and 0.99 in the assay with ELF5.
For TCGCCG the same measures were 0.923 and 1.15.
Take AATGGA: the binding signal amounted to 0.984 in the assay with CRX and 0.985 with ELF5.
For GTTACC the same measures were 0.815 and 1.11.
For CCCATA the same measures were 1.24 and 1.25.
Regarding ACCCGT, the binding signal with FEV stood at 0.882; in the assay with CRX, 0.784; with ELF5, 0.86.
For TGCGGC the same measures were 1.02, 0.861 and 0.985.
With CTAGAC, the binding signal in the assay with FEV was 0.96; with CRX, 1; in the assay with ELF5 it was 0.907.
On to CAACTG, for which the binding signal in the assay with FEV was determined as 1.14; in the assay with CRX it was 0.844; with ELF5 it was 1.08.
For AGTTAT the same measures were 0.841, 0.89 and 0.919.
For TCATCG the same measures were 0.997, 1.05 and 0.904.
For ATCACG, in that order: 0.958, 0.995 and 1.02.
As for ATCTCA, the binding signal is 1.16 with FEV, 1.51 in the assay with CRX and 1.09 with ELF5.
For CACCTG the same measures were 0.954, 0.778 and 0.939.
For TTGAAG the same measures were 0.919, 1.03 and 0.996.
For GGATCA the same measures were 0.775, 1.53 and 0.782.
With CGGCCC, the binding signal turned out to be 1 with FEV, 0.631 in the assay with CRX and 0.904 in the assay with ELF5.
For AAGGTC the same measures were 0.893, 0.824 and 0.901.
For GCCGAA, in that order: 0.998, 0.95 and 0.925.
For CCCAGA, in that order: 0.853, 0.972 and 0.886.
For GGAATA, the results for the binding signal in the assay with FEV, in the assay with CRX and with ELF5 were 0.843, 1.02 and 0.98, respectively.
For CAGCTC the same measures were 0.981, 0.965 and 0.934.
As to GCCTGT, the binding signal is 0.911 with FEV, 0.801 in the assay with CRX and 0.916 with ELF5.
For AAAGAT the same measures were 1.15, 1.75 and 1.15.
For TAGATA, in that order: 0.945, 1.48 and 0.971.
For TTAGTC the same measures were 0.712, 1.57 and 0.748.
As for CGACAG, the results for the binding signal with FEV, in the assay with CRX and with ELF5 were 0.958, 0.741 and 0.917, respectively.
For TTGGGA the same measures were 0.888, 1.04 and 0.91.
For CGAGAA the same measures were 0.824, 1.27 and 0.854.
For GTCATT the same measures were 0.952, 0.837 and 0.97.
In the case of CTTTAG, the binding signal with FEV is 1.18; in the assay with CRX it was 1.51; in the assay with ELF5, 1.05.
For ATCGCG, in that order: 0.909, 0.937 and 0.909.
For TCGCGT the same measures were 0.914, 0.881 and 0.878.
For TCGATG the same measures were 0.974, 0.98 and 1.07.
Take TCGCTG: the binding signal with FEV was found to be 0.976; with CRX, 0.856; in the assay with ELF5, 0.942.
For ATAGTC the same measures were 0.895, 0.974 and 0.899.
For ACATGA the same measures were 0.896, 0.783 and 0.932.
